Data as given in PubChem BioAssay AID1508597 (Cure First, 2020)
Shown is an unselected part of the about 2,100 reagents, in one setting of the screen. 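Calls flag viability under 80% in either arm, not effects specific to rucaparib; the reference for percent is not stated.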 A reagent listed more than once was tested more than once; the source does not tell the runs apart. Not stated in the record: the 100% reference.

- Aim: 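Survival screen with siRNA in ovarian cancer cells derived from patients, with or without rucaparib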 (primary screen)
- System: human ovarian carcinoma lines grown from tumours: OCI-P5x (papillary serous) and OCI-C5x (clear cell)
- Reagent: siRNA pool against human genes, 1.25 pmol siRNA per well
- Time to read-out: 72 h or 96 h, depending on the cell culture
- Challenge: rucaparib 20 µM (about IC30) or vehicle, present until read-out
- Rucaparib or vehicle: Rucaparib
- Cell line: OCI-C5x (clear cell)
- Read-out: 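ATP luminescence measured at 72 or 96 h according to the culture, then normalised and expressed as percent viability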
- Scale: viability, normalised: higher = more viable cells remaining
- Active means: 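Active when normalised viability falls below 80 percent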
- Calls: active = viability under 80%; inactive = viability 80% or more

no.	gene knocked down	PubChem SID	technical replicate	viability, normalised (%)	Outcome
1	AK9 (adenylate kinase 9)	SID405528584	1	65.7	active
2	AK9 (adenylate kinase 9)	SID405528584	2	59.6	active
3	AK9 (adenylate kinase 9)	SID405528584	3	38.9	active
4	UVRAG (UV radiation resistance associated)	SID405528461	1	63.3	active
5	UVRAG (UV radiation resistance associated)	SID405528461	2	68.8	active
6	UVRAG (UV radiation resistance associated)	SID405528461	3	63.1	active
7	ESR1 (estrogen receptor 1)	SID405526765	1	70.2	active
8	ESR1 (estrogen receptor 1)	SID405526765	2	59.4	active
9	ESR1 (estrogen receptor 1)	SID405526765	3	46.9	active
10	PRDM2 (PR/SET domain 2)	SID405527187	1	41.3	active
11	PRDM2 (PR/SET domain 2)	SID405527187	2	41.5	active
12	PRDM2 (PR/SET domain 2)	SID405527187	3	42.1	active
13	RNF17 (ring finger protein 17)	SID405527252	1	48.6	active
14	RNF17 (ring finger protein 17)	SID405527252	2	38.2	active
15	RNF17 (ring finger protein 17)	SID405527252	3	41.1	active
16	KPNA3 (karyopherin subunit alpha 3)	SID405528364	1	70.2	active
17	KPNA3 (karyopherin subunit alpha 3)	SID405528364	2	68.9	active
18	KPNA3 (karyopherin subunit alpha 3)	SID405528364	3	60.4	active
19	PRDM14 (PR/SET domain 14)	SID405527184	1	43.3	active
20	PRDM14 (PR/SET domain 14)	SID405527184	2	46.9	active
21	PRDM14 (PR/SET domain 14)	SID405527184	3	39.8	active
22	PI4K2B (phosphatidylinositol 4-kinase type 2 beta)	SID405527742	1	65.3	active
23	PI4K2B (phosphatidylinositol 4-kinase type 2 beta)	SID405527742	2	53.7	active
24	PI4K2B (phosphatidylinositol 4-kinase type 2 beta)	SID405527742	3	58.5	active
25	UBE2N (ubiquitin conjugating enzyme E2 N)	SID405526601	1	95	inactive
26	UBE2N (ubiquitin conjugating enzyme E2 N)	SID405526601	1	61	active
27	UBE2N (ubiquitin conjugating enzyme E2 N)	SID405526601	2	81.4	inactive
28	UBE2N (ubiquitin conjugating enzyme E2 N)	SID405526601	2	53.8	active
29	UBE2N (ubiquitin conjugating enzyme E2 N)	SID405526601	3	49.7	active
30	UBE2N (ubiquitin conjugating enzyme E2 N)	SID405526601	3	54.6	active
31	DLG4 (discs large MAGUK scaffold protein 4)	SID405527841	1	62.3	active
32	DLG4 (discs large MAGUK scaffold protein 4)	SID405527841	1	45.2	active
33	DLG4 (discs large MAGUK scaffold protein 4)	SID405527841	2	44.2	active
34	DLG4 (discs large MAGUK scaffold protein 4)	SID405527841	2	61.2	active
35	DLG4 (discs large MAGUK scaffold protein 4)	SID405527841	3	55	active
36	DLG4 (discs large MAGUK scaffold protein 4)	SID405527841	3	49.5	active
37	NEIL2 (nei like DNA glycosylase 2)	SID405528291	1	62.5	active
38	NEIL2 (nei like DNA glycosylase 2)	SID405528291	2	59.3	active
39	NEIL2 (nei like DNA glycosylase 2)	SID405528291	3	63.3	active
40	DNAJC1 (DnaJ heat shock protein family (Hsp40) member C1)	SID405528230	1	57.1	active
41	DNAJC1 (DnaJ heat shock protein family (Hsp40) member C1)	SID405528230	2	41.3	active
42	DNAJC1 (DnaJ heat shock protein family (Hsp40) member C1)	SID405528230	3	53.7	active
43	CIT (citron rho-interacting serine/threonine kinase)	SID405527810	1	83.2	inactive
44	CIT (citron rho-interacting serine/threonine kinase)	SID405527810	2	79.1	active
45	CIT (citron rho-interacting serine/threonine kinase)	SID405527810	3	90.3	inactive

9 successive entries from above, quoted:
no.	gene knocked down	PubChem SID	technical replicate	viability, normalised (%)	Outcome
33	DLG4 (discs large MAGUK scaffold protein 4)	SID405527841	2	44.2	active
34	DLG4 (discs large MAGUK scaffold protein 4)	SID405527841	2	61.2	active
35	DLG4 (discs large MAGUK scaffold protein 4)	SID405527841	3	55	active
36	DLG4 (discs large MAGUK scaffold protein 4)	SID405527841	3	49.5	active
37	NEIL2 (nei like DNA glycosylase 2)	SID405528291	1	62.5	active
38	NEIL2 (nei like DNA glycosylase 2)	SID405528291	2	59.3	active
39	NEIL2 (nei like DNA glycosylase 2)	SID405528291	3	63.3	active
40	DNAJC1 (DnaJ heat shock protein family (Hsp40) member C1)	SID405528230	1	57.1	active
41	DNAJC1 (DnaJ heat shock protein family (Hsp40) member C1)	SID405528230	2	41.3	active

The results go on:
no.	gene knocked down	PubChem SID	technical replicate	viability, normalised (%)	Outcome
46	PKD2L1	SID405527764	1	62.7	active
47	PKD2L1	SID405527764	2	54.8	active
48	PKD2L1	SID405527764	3	35.7	active
49	FKBP1A (FKBP prolyl isomerase 1A)	SID405526785	1	62.4	active
50	FKBP1A (FKBP prolyl isomerase 1A)	SID405526785	2	39.1	active
51	FKBP1A (FKBP prolyl isomerase 1A)	SID405526785	3	50.1	active
52	DSTYK (dual serine/threonine and tyrosine protein kinase)	SID405528538	1	48	active
53	DSTYK (dual serine/threonine and tyrosine protein kinase)	SID405528538	2	42.3	active
54	DSTYK (dual serine/threonine and tyrosine protein kinase)	SID405528538	3	38.4	active
55	DMAP1 (DNA methyltransferase 1 associated protein 1)	SID405528227	1	61.5	active
56	DMAP1 (DNA methyltransferase 1 associated protein 1)	SID405528227	2	50.9	active
57	DMAP1 (DNA methyltransferase 1 associated protein 1)	SID405528227	3	54.9	active
58	TRMT112 (tRNA methyltransferase activator subunit 11-2)	SID405526588	1	83.4	inactive
59	TRMT112 (tRNA methyltransferase activator subunit 11-2)	SID405526588	2	45.1	active
60	TRMT112 (tRNA methyltransferase activator subunit 11-2)	SID405526588	3	50.2	active
61	CLK4 (CDC like kinase 4)	SID405527745	1	66.6	active
62	CLK4 (CDC like kinase 4)	SID405527745	2	63.6	active
63	CLK4 (CDC like kinase 4)	SID405527745	3	65	active
64	KDM4C (lysine demethylase 4C)	SID405526935	1	58.8	active
65	KDM4C (lysine demethylase 4C)	SID405526935	2	55.6	active
66	KDM4C (lysine demethylase 4C)	SID405526935	3	46.3	active
67	PSKH2 (protein serine kinase H2)	SID405528560	1	41.2	active
68	PSKH2 (protein serine kinase H2)	SID405528560	2	54.6	active
69	PSKH2 (protein serine kinase H2)	SID405528560	3	34.8	active
70	NRBP1 (nuclear receptor binding protein 1)	SID405527881	1	49	active
71	NRBP1 (nuclear receptor binding protein 1)	SID405527881	2	55.6	active
72	NRBP1 (nuclear receptor binding protein 1)	SID405527881	3	68.5	active
73	SATB2 (SATB homeobox 2)	SID405527273	1	35.8	active
74	SATB2 (SATB homeobox 2)	SID405527273	2	31.3	active
75	SATB2 (SATB homeobox 2)	SID405527273	3	24.4	active
